Experimental data published in patent US6548048 (dated 2003).
Non-standard residues stand in square brackets, D forms with d. *: point of attachment. Palmitoyl = CCCCCCCCCCCCCCCC(=O)*; Dap = NC[C@H](N)C(=O)O; Ahx = NCCCCCC(=O)O

Assays:
[1] = general procedure: Fmoc solid-phase peptide synthesis; Fmoc-amino acid-Wang resin or Rink amide resin; HBTU (HATU for Hds and PEG2000); conditions: whole synthesis, scale 0.25 mmol
[2] = general procedure: Fmoc solid-phase peptide synthesis; Rink amide resin; HBTU (HATU for Hds and PEG2000); conditions: whole synthesis
[3] = general procedure: Fmoc solid-phase peptide synthesis; Fmoc-Glu(OtBu)-Wang resin; HBTU (HATU for Hds and PEG2000); conditions: whole synthesis
[4] = general procedure: Fmoc solid-phase peptide synthesis; Rink amide AM resin; HBTU (HATU for Hds and PEG2000); conditions: whole synthesis, scale 0.25 mmol
[5] = general procedure: Fmoc solid-phase peptide synthesis; Fmoc-Cys(Trt)-Wang resin; HBTU (HATU for Hds and PEG2000); conditions: whole synthesis, scale 0.25 mmol
[6] = general procedure: Fmoc solid-phase peptide synthesis; Fmoc-Lys(Boc)-Wang resin; HBTU (HATU for Hds and PEG2000); conditions: whole synthesis, scale 0.25 mmol

## Behenic Acid (Beh)-Beh-Asp-Ala-Asp-Ala-Dpr-Ala-Dpr-NH
[1]
  isolated mass: 6 mg
[2]; scale 0.25 mmol
  crude mass: 150 mg

## N-α-Palmitoyl-N-ε-palmitoyl-lysinyl-glutamyl-glutamyl-glutamyl-glutamic Acid
[1]
  isolated mass: 30 mg
[3]; scale 0.25 mmol
  crude mass: 200 mg

## Palmitoyl-[Dap](Palmitoyl)RRK-NH2
[1]
  isolated mass: 5 mg
[2]; scale 0.25 mmol
  crude mass: 50 mg

## N-α-Palmitoyl-N-ε-palmitoyl-lysinyl-lysinyl-lysinyl-lysinyl-lysinyl-tyrosinyl-tyrosine Amide
[2]; scale 0.2 mmol
  crude mass: 300 mg

## Palmitoyl-AKAKAEAEAKAKAEAE-OH
[3]; scale 0.25 mmol
  crude mass: 300 mg

## Palmitoyl-Dpr(Palmitoyl)-Arg-Arg-Lys(PEG2000)—NH2
[4]
  crude mass: 27 mg

## Palmitoyl-K(Palmitoyl)KK[Ahx]C-OH
[5]
  crude mass: 250 mg

## Palmitoyl-K(Palmitoyl)KK[Ahx]KRKRKR-NH2
[2]; scale 0.25 mmol
  crude mass: 150 mg

## N-α-Palmitoyl-N-ε-palmitoyl-lysinyl-lysinyl-lysinyl-lysinyl-lysine
[6]
  crude mass: 200 mg

## N-β-PEG2000-Dpr-Lys(Hds)-Lys-Lys(Hds)-Glu-OH
[3]; scale 0.2 mmol
  crude mass: 500 mg

## Palmitoyl-AEAEAKAKAEAEAKAK-OH
[6]
  crude mass: 300 mg
